Laboratory results reported in the supplement of paper PMC5949888.
Most values lie at the floor of the assay. Slopes are relative: functional sequences can read slightly below zero.

What follows are substances tested on Saccharomyces cerevisiae PS128 hsf1 delta, HSF1(1-493) fusion (assay: growth estimate (transactivation domain function in HSF1 fusion, heat-shock survival) (a.u. (slope of normalised read count over time)); higher = stronger growth at 37°C, i.e. more transactivation activity). Settings: library: random library.
RVRCEHGAFSGEVIQRDCGI gave a growth estimate of less than -0.25. RVRDEGRSQPRG gave a growth estimate of less than -0.25. In the case of RVRDLRLLGD, the growth estimate is reported as less than -0.25. Work on RVRFGSCAAVFCLTLYWRI yielded a growth estimate of less than -0.25. Substance RVRGLHVLAECFFVRRIRPG has a growth estimate of less than -0.25. RVRHFLTSLPYDFCSTGALA was tested, and the growth estimate was less than -0.25. RVRIDSQR was tested, and the growth estimate was less than -0.25. RVRNDRVVPPDEHTA showed a growth estimate of less than -0.25. With RVRRSFFRLRNRNVLMQ the growth estimate was less than -0.25. RVSEIMHLL gave a growth estimate of -0.245. RVSLSSRLS gave a growth estimate of less than -0.25. Substance RVSMQN has a growth estimate of less than -0.25. RVSRFEEK gave a growth estimate of less than -0.25. Substance RVSRLGQNTSMSVQMMAQHF has a growth estimate of less than -0.25. RVSSGEDAFPLRILRPC was tested, and the growth estimate was less than -0.253. Substance RVSTLAGDAR has a growth estimate of less than -0.25. RVSTPT was tested, and the growth estimate was less than -0.25. Work on RVSWSPRGSMESTIAPGSS yielded a growth estimate of -0.243. RVTRLFMSWTPYVDGFTFQT showed a growth estimate of less than -0.25. RVTSLALYLGEFIAHWLTSG was tested, and the growth estimate was less than -0.25. Work on RVVAGGPLLV yielded a growth estimate of less than -0.25. Substance RVVGGIRGEGVGERGIRVRV has a growth estimate of less than -0.25. Work on RVVVLENSCL yielded a growth estimate of less than -0.25. In the case of RVWVLCHRQAIWTEALLKDD, the growth estimate is reported as less than -0.25. RVYCSTSRPSTGLRRSYVSA showed a growth estimate of less than -0.25. In the case of RVYR, the growth estimate is reported as less than -0.25. With RVYVCTNGTFSRGLDAVNSA the growth estimate was less than -0.25. For RWAIRTH, the growth estimate was less than -0.25. With RWARTNSCRARQSKPFYVDS the growth estimate was less than -0.25. Work on RWEPAQVEGFGDFA yielded a growth estimate of less than -0.25. RWGP gave a growth estimate of less than -0.25. With RWGSILGPCSTELRLLAYHH the growth estimate was less than -0.25. In the case of RWHAD, the growth estimate is reported as less than -0.25. For RWIILAPEITEQQRVNTGTH, the growth estimate was less than -0.25. Work on RWIL yielded a growth estimate of less than -0.25. RWKLDRRYALV gave a growth estimate of less than -0.25. Work on RWLGSSVSDFGFTKRVTFSP yielded a growth estimate of less than -0.25. RWM showed a growth estimate of less than -0.25. With RWMRKLRKEGEDADFMIRHR the growth estimate was less than -0.25. Work on RWMRVQGDPEPREFNRFHRG yielded a growth estimate of less than -0.25. RWMSGDRFFWNAPGCIIRGR showed a growth estimate of less than -0.25. With RWNGPADKV the growth estimate was less than -0.25. RWPVGCSQLYGGLENFRGVC gave a growth estimate of less than -0.25. In the case of RWR, the growth estimate is reported as -0.243. Work on RWSL yielded a growth estimate of less than -0.25. RWTVFQVS showed a growth estimate of less than -0.25. For RWVMCVGQR, the growth estimate was less than -0.25. Work on RWVSERIKSGSRRTYR yielded a growth estimate of less than -0.25. Substance RWYSRDRLWGERSGFSCHLS has a growth estimate of less than -0.25. For RYARLLISCGGRVRGSGPSA, the growth estimate was less than -0.25. RYEMRTSNRQRCGCTRGLHW showed a growth estimate of less than -0.25. Work on RYGGCTLDCVTAL yielded a growth estimate of less than -0.25. Substance RYGGL has a growth estimate of less than -0.25. Work on RYGIDRVLGAPGDNALFLGC yielded a growth estimate of less than -0.25. RYGSFTLLDISGPVLSNASQ was tested, and the growth estimate was less than -0.25. With RYIFGTRWDLIPLACNTALL the growth estimate was less than -0.25. In the case of RYILV, the growth estimate is reported as less than -0.25. With RYKLKNWVTWHAQDSPRGSR the growth estimate was less than -0.25. Work on RYKREPPEYYLEHHIIYVLH yielded a growth estimate of less than -0.25. Work on RYKTTRVIIAGHVNIAFRE yielded a growth estimate of less than -0.25. RYLGSLRVAY showed a growth estimate of less than -0.25. RYPQLICGRLVSHLMGT gave a growth estimate of less than -0.25. RYRAGSMWPPIITLGAGTRL showed a growth estimate of less than -0.25. RYRDNRLSQSFSHSLAKPAH showed a growth estimate of less than -0.25. With RYSPSPQVRSSVKFLFPRCR the growth estimate was less than -0.25. RYSSLCNRSGADNV showed a growth estimate of less than -0.25. Work on RYSSVCATESFFGLD yielded a growth estimate of less than -0.25. With RYSTWV the growth estimate was less than -0.25. For RYTANVGLRICTACFSIESS, the growth estimate was less than -0.25. In the case of RYTPGNLKY, the growth estimate is reported as less than -0.25. RYTQNKSPWALVDRGGRSED was tested, and the growth estimate was less than -0.25. In the case of RYTQPCGRSQNNMASSSVTQ, the growth estimate is reported as less than -0.25. Work on RYTRPHRSECAVRHVDGVDV yielded a growth estimate of less than -0.25. In the case of RYTTVIKPWDSNQ, the growth estimate is reported as less than -0.25. Work on RYTVVKQYWVLKSVRTRHLT yielded a growth estimate of less than -0.25. For RYVGGKQASTATLGCIDFLL, the growth estimate was less than -0.25. With RYVRGHGMDVNGESATHTP the growth estimate was less than -0.25. RYVSRSEVIVEPQSLRIA was tested, and the growth estimate was less than -0.25. Substance RYYDEWVGEAHLYWSPQRHR has a growth estimate of less than -0.25. For RYYPEV, the growth estimate was less than -0.25.
